This assay has as its system L1210 leukemia ip in BDF1 mice, survival T/C. Nature of the assay: NCI In Vivo Anticancer Drug Screen. Data for tumor model L1210 Leukemia (intraperitoneal) in B6D2F1 (BDF1) mice. The note with it: T/C endpoint: mean survival time, higher T/C = longer survival.
The mark [1] stands for this setting: dose: 100.0 mg/kg/injection, schedule: Q01DX009 (ip), vehicle: saline with Tween-80.
The mark [2] stands for this setting: dose: 400.0 mg/kg/injection, schedule: Q04DX003 (ip), vehicle: Klucel (hydroxypropylcellulose) (HPC).
Setting [3] is: dose: 150.0 mg/kg/injection, schedule: Q01DX001 (ip), vehicle: saline.
[4] abbreviates: dose: 300.0 mg/kg/injection, schedule: Q01DX001 (ip), vehicle: saline.
The mark [5] stands for this setting: dose: 200.0 mg/kg/injection, schedule: Q01DX009 (ip), vehicle: saline.
Setting [6] is: dose: 200.0 mg/kg/injection, schedule: Q04DX003 (ip), vehicle: saline.
[7] abbreviates: dose: 400.0 mg/kg/injection, schedule: Q01DX009 (ip), vehicle: saline.
Where [8] appears, read: dose: 100.0 mg/kg/injection, schedule: Q04DX003 (ip), vehicle: saline.
[9] abbreviates: dose: 400.0 mg/kg/injection, schedule: Q04DX003 (ip), vehicle: saline.
[10] abbreviates: dose: 200.0 mg/kg/injection, schedule: Q01DX009 (ip), vehicle: saline with Tween-80.
[11] abbreviates: dose: 400.0 mg/kg/injection, schedule: Q01DX001 (ip), vehicle: saline.

The list is a part of this screen's results and no random one: it gathers tests that were run many times, whatever their T/C, doses with no T/C, and many T/C values between a quarter and a half above the control. Other doses and runs of a compound stand elsewhere. T/C gives the treated animals as a percentage of the vehicle group. Some entries give survivors of the animals treated and no T/C: the source files T/C as zero there, which appears to mark a toxic dose or a test without result, not a measured value. Some doses without a T/C left all or most animals alive at the check, yet need not have been tolerated: survival well below the control is almost never listed, so the zero probably covers shortened survival too. Counts of survivors are from the toxicity check (mostly the fifth day) where no day follows; animals may have died later. Schedule codes are those of the source, read here as Q, the interval in days (D) or hours (H), X, the number of doses. Some entries were tested several times; the results are listed from low to high. Some schedule codes hold Z or #, which are not explained here. For survival time, this PubChem deposit counts one and a half times the control or more as active, and values a quarter to a half above the control carry no call in these data; other NCI protocols may use other cut-offs.

Survivor count and T/C data for 28 compounds are collected here from PubChem BioAssay AID248 (DTP/NCI, 2004).

`CCCCCCCC1N(C)CCCN1C`: the survivor count reads like this: under setting [1], 3 of 6; (dose: 200.0 mg/kg/injection, schedule: Q04DX003 (ip), vehicle: saline with Tween-80) 0 of 6; (dose: 400.0 mg/kg/injection, schedule: Q04DX003 (ip), vehicle: saline with Tween-80) 0 of 6.

In the case of `O=C(C=C(C(F)(F)F)C(F)(F)F)c1cccc(S(=O)(=O)F)c1`, the survivor count reads like this: (dose: 25.0 mg/kg/injection, schedule: Q01DX009 (ip), vehicle: saline with Tween-80) 2 of 6; (dose: 50.0 mg/kg/injection, schedule: Q01DX009 (ip), vehicle: saline with Tween-80) 2 of 6; under setting [1], 0 of 6.

Consider `Cn1c(=S)sc2ccccc21`, for which the survivor count is 0 of 3 (dose: 100.0 mg/kg/injection, schedule: Q04DX003 (ip), vehicle: saline with Tween-80); 0 of 3 (dose: 200.0 mg/kg/injection, schedule: Q04DX003 (ip), vehicle: Klucel (hydroxypropylcellulose) (HPC)); 0 of 3 under setting [2].

Take `CCN(C(=O)N(CCCl)N=O)C1CCCCC1`: the survivor count runs as follows: under setting [3], 3 of 6; under setting [4], 0 of 6.

With `C=C1CC(C)(c2ccc(S(=O)(=O)N3CCCC3)cc2)OC1=O` (stereo unspecified), the survivor count is recorded as 3 of 6 (dose: 175.0 mg/kg/injection, schedule: Q01DX009 (ip), vehicle: Klucel (hydroxypropylcellulose) (HPC)) and 0 of 6 (dose: 350.0 mg/kg/injection, schedule: Q01DX009 (ip), vehicle: Klucel (hydroxypropylcellulose) (HPC)).

Regarding `CN(C)CCC(c1ccccc1)c1cc(Cl)ccn1` (stereo unspecified), the survivor count under setting [5] was 0 of 6, the survivor count under setting [6] was 3 of 4 and the survivor count under setting [7] is listed as 0 of 6.

Turning to `NCCO[Si](OCCN)(OCCN)OCCN`, under setting [5], the survivor count was 0 of 3.

In the case of `c1ccc(C[N+]23CCN(CC2)CC3)cc1`, the survivor count was 4 of 6 under setting [8], 0 of 6 under setting [6] and 0 of 6 under setting [9].

Regarding `O=[As](O)(CC(O)COc1ccccc1)c1ccccc1` (stereo unspecified), the survivor count runs as follows: (dose: 25.0 mg/kg/injection, schedule: Q01DX001 (ip), vehicle: saline with Tween-80) 0 of 6 and 2 of 6; (dose: 50.0 mg/kg/injection, schedule: Q01DX001 (ip), vehicle: saline with Tween-80) 0 of 6; (dose: 100.0 mg/kg/injection, schedule: Q01DX001 (ip), vehicle: saline with Tween-80) 0 of 6; (dose: 200.0 mg/kg/injection, schedule: Q01DX001 (ip), vehicle: saline with Tween-80) 0 of 6; (dose: 400.0 mg/kg/injection, schedule: Q01DX001 (ip), vehicle: saline with Tween-80) 0 of 6.

In the case of `N#Cc1ccccc1.N#Cc1ccccc1.[Cl][Pd][Cl]`, the survivor count under setting [2] is listed as 6 of 6.

Take `NNC(=O)c1ccc(-c2ccc[nH]2)[nH]1`: the survivor count under setting [4] is given as 1 of 6.

For the compound `COc1cc(C=O)cc(O)c1O`, the T/C (dose: 250.0 mg/kg/injection, schedule: Q01DX Z (ip), vehicle: saline) is 138 % of control.

For `Cc1ccc([S+](c2ccccc2)c2cc(C)ccc2C)cc1` (stereo unspecified), the survivor count runs as follows: (dose: 10.0 mg/kg/injection, schedule: Q01DX001 (ip), vehicle: carboxymethylcellulose (CMC)) 2 of 6; (dose: 15.0 mg/kg/injection, schedule: Q01DX001 (ip), vehicle: carboxymethylcellulose (CMC)) 0 of 6; (dose: 30.0 mg/kg/injection, schedule: Q01DX001 (ip), vehicle: carboxymethylcellulose (CMC)) 0 of 6; (dose: 60.0 mg/kg/injection, schedule: Q01DX001 (ip), vehicle: carboxymethylcellulose (CMC)) 0 of 6; (dose: 75.0 mg/kg/injection, schedule: Q01DX001 (ip), vehicle: carboxymethylcellulose (CMC)) 0 of 6; (dose: 150.0 mg/kg/injection, schedule: Q01DX001 (ip), vehicle: carboxymethylcellulose (CMC)) 0 of 6. Besides, for the setting “dose: 300.0 mg/kg/injection, schedule: Q01DX001 (ip), vehicle: carboxymethylcellulose (CMC)”, the survivor count is 0 of 6.

Turning to `CCN(CC)CCC1CCNCC1`, the survivor count is given as 0 of 6 (dose: 50.0 mg/kg/injection, schedule: Q04DX003 (ip), vehicle: saline); 1 of 6 under setting [8]; 0 of 6 under setting [6]; 0 of 6 under setting [9].

Take `C#CC(OC(=O)N(C)C)(c1ccccc1)c1ccc(F)cc1` (stereo unspecified): the survivor count (dose: 80.0 mg/kg/injection, schedule: Q01DX001 (ip), vehicle: saline) is 3 of 6.

On to `c1ccc(OCCN2CC2)nc1`, for which the survivor count runs as follows: (dose: 100.0 mg/kg/injection, schedule: Q01DX001 (ip), vehicle: carboxymethylcellulose (CMC)) 2 of 6; (dose: 200.0 mg/kg/injection, schedule: Q01DX001 (ip), vehicle: carboxymethylcellulose (CMC)) 0 of 6; (dose: 400.0 mg/kg/injection, schedule: Q01DX001 (ip), vehicle: carboxymethylcellulose (CMC)) 0 of 6.

With `Clc1nc(Cl)c2c(ncn2Cc2ccccc2)n1`, the survivor count (dose: 400.0 mg/kg/injection, schedule: Q01DX001 (ip), vehicle: other) is given as 1 of 6.

Regarding `Cn1cnc([N+](=O)[O-])c1[Se]c1nc(N)nc2c1ncn2C1OC(CO)C(O)C1O` (stereo unspecified), the survivor count reads like this: (dose: 100.0 mg/kg/injection, schedule: Q01DX005 (ip), vehicle: saline) 3 of 6; (dose: 200.0 mg/kg/injection, schedule: Q01DX005 (ip), vehicle: saline) 0 of 6.

On to `N#CCCCC(=O)c1ccccc1`, for which the survivor count by setting is: under setting [1], 3 of 6; under setting [10], 2 of 6; (dose: 400.0 mg/kg/injection, schedule: Q01DX009 (ip), vehicle: saline with Tween-80) 0 of 6.

As for `OCCNC(c1ccc(Cl)cc1)C(O)c1ccc(Cl)cc1` (stereo unspecified), the survivor count under setting [11] is recorded as 0 of 4.

With `O=C(N/N=C\c1ccc(N(CCCl)CCCl)cc1[N+](=O)[O-])c1cccnc1`, the survivor count under setting [11] is given as 0 of 4.

With `NC(CSC(c1ccccc1)(c1ccccc1)c1ccc(O)cc1)C(=O)O` (stereo unspecified), the survivor count (dose: 300.0 mg/kg/injection, schedule: Q01DX001 (ip), vehicle: other) is on record as 2 of 6.

As to `O=C1CCCCCN1`, under setting [7], the survivor count is 3 of 6.

With `O=C(Nc1ccc(C2=NCC(O)CN2)cc1)c1ccc(C(=O)Nc2ccc(C3=NCC(O)CN3)cc2)c(Cl)c1` (stereo unspecified), the survivor count runs as follows: (dose: 1.25 mg/kg/injection, schedule: Q01DX015 (ip), vehicle: water) 0 of 6; (dose: 2.5 mg/kg/injection, schedule: Q01DX015 (ip), vehicle: water) 0 of 6; (dose: 3.75 mg/kg/injection, schedule: Q01DX015 (ip), vehicle: water) 0 of 6; (dose: 5.0 mg/kg/injection, schedule: Q01DX015 (ip), vehicle: water) 0 of 6; (dose: 10.0 mg/kg/injection, schedule: Q01DX Z (ip), vehicle: water) 0 of 6; (dose: 20.0 mg/kg/injection, schedule: Q01DX Z (ip), vehicle: water) 0 of 6. For the setting “dose: 30.0 mg/kg/injection, schedule: Q01DX Z (ip), vehicle: water”, the survivor count was 0 of 6.

On to `C1=C(N2CCCCC2)C2CCC1C2` (stereo unspecified), for which the survivor count by setting is: under setting [3], 1 of 6; under setting [4], 0 of 6.

In the case of `O=S(=O)(Nc1ccccc1)c1ccc([As](=O)(O)O)cc1`, the survivor count by setting is: (dose: 200.0 mg/kg/injection, schedule: Q01DX001 (ip), vehicle: saline) 2 of 4; under setting [11], 2 of 4.

For `O=C1OCC/C1=C1/CCOC1`, under setting [5], the survivor count was 0 of 3.

`OC1CCCCC1C1CCCCC1` (stereo unspecified): the survivor count under setting [10] is recorded as 3 of 3.
